Data taken from paper PMC11212260, “Next-generation neuropeptide Y receptor small-molecule agonists inhibit mosquito-biting behavior” (Parasites & Vectors, 2024).
“And” between values parts separate entries of the source, which are not always exact repeats. Equal values may be shown once. Where no unit stands, none is given here, and values compare only within one read-out.

The molecules below were run on Aedes aegypti (Orlando strain) females (assay: Glytube feeding: females feeding to repletion and weight per female (meal palatability)). Conditions: Supplemental Figure 1 Panel B; compounds of Fig 3; individual replicate values.
Format: in vivo
Experimental: Groups of 60–150 females were placed in bucket cages with a diameter of 21.6 cm and height of 16.5 cm (VWR) and fasted with access to water for 24 h prior to feeding. Meals were delivered to females via Glytube membrane feeders as described previously. Meals consisted of 1.5 ml sheep blood (HemoStat Laboratories), saline (400 mM NaHCO3 + dih2O), or saline and test compound. Lyophilized compounds were stored at room temperature until use. High-concentration stocks (30 mM in 100% dimethyl sulfoxide [DMSO]) (Sigma-Aldrich) were stored at −20 °C and diluted in saline immediately prior to feeding. Once prepared, meals and glycerol heating elements were warmed in a 42 °C water bath for 15 min to provide warmth to attract mosquitos to feed. ATP (1 mM final concentration) and test compounds (1 μM final concentration) were added prior to placing the meal on top of the mesh on the cage containing female mosquitos. Females were allowed 15–20 min to feed to repletion. Abdominal engorgement was scored by eye and confirmed by weighing females to ensure full feeding (Data S1). […] Females were returned to their original cage with a diH2O wick for 48 h prior to behavioral testing. The lethality of each compound was measured by counting the number of dead females in each cage 24 h post-meal.
Supplementary file 13071_2024_6347_MOESM1_ESM.png: Supplementary Material 1: Figure 1. […] (A) Percent of females feeding to repletion and (B) weight per female after feeding on the indicated meal used for testing in Miniport olfactometer experiments in Figure 3B. (C) Percent of females feeding to repletion and (D) weight per female after feeding on the indicated meal used for testing in live host assays in Figure 4. Data are shown as mean with standard deviation. n = 2–22 replicate cages, 60–150 females/cage. Females were weighed in groups of five to ensure reliable readings. Kruskal–Wallis with Dunn’s multiple comparisons to saline-fed group, ns P > 0.01, * P < 0.01, *** P < 0.0001. (PNG 321 KB)

SMILES	Weight per female
CNc1nc(NC(=N)N)nc2cc(OCc3ccc(OC)cc3)c(OC)cc12 [TDI-014185]	3.78 and 4.24 and 4.26 and 4.74 and 4.55
COc1cc2c(C)nc(NC(=N)N)nc2cc1OCc1ccccc1 [TDI-012943]	5.56 and 4.62 and 6.38 and 5.32 and 5.86 and 5.46 and 6.42 and 4.9 and 4.72
Cc1nc(NC(=N)N)nc2cc(OCc3ccc(OC(F)F)cc3)ccc12 [TDI-014170]	3.88 and 4.72 and 4.12 and 3.9 and 4.1 and 3.96 and 4.52 and 4.7 and 4.64 and 4.94
Cc1nc(NC(=N)N)nc2cc(OCc3cnccn3)ccc12 [TDI-014181]	4.72 and 4.28 and 4.06 and 5.32 and 4.42
Cc1nc(NC(=N)N)nc2cc(OCc3ccc(OC(F)(F)F)cc3)ccc12 [TDI-014172]	4.62 and 4.64 and 3.64 and 3.96 and 4.74 and 4.82
CCOc1ccc(COc2ccc3c(C)nc(NC(=N)N)nc3c2)cc1 [TDI-014176]	4.82 and 5.34 and 4.9 and 4.86 and 4.26 and 3.86
Cc1nc(NC(=N)N)nc2cc(OCc3cccnn3)ccc12 [TDI-014179]	5.26 and 4.72 and 3.92 and 4.46 and 4.32 and 4.68
CNc1nc(NC(=N)N)nc2cc(OCc3ccccc3)c(OC)cc12 [TDI-014184]	5.2 and 4.6 and 4.02
COc1ccc(OCc2ccc3c(C)nc(NC(=N)N)nc3c2)cc1 [TDI-014175]	5.68 and 4.34 and 4.64 and 4.76 and 4.72 and 4.54
CCCOc1ccc2c(C)nc(NC(=N)N)nc2c1 [TDI-014178]	4.74 and 4.72 and 4.48 and 4.08 and 4.22
Cc1nc(NC(=N)N)nc2cc(N3CCc4ccccc4C3)ccc12 [TDI-014186]	5.28 and 5 and 5.44
Cc1nc(NC(=N)N)nc2cc(OCC3CC3)ccc12 [TDI-014171]	4.34 and 5.12 and 4.22 and 4.02 and 3.08 and 4 and 3.4 and 4.6 and 4.78 and 5.36 and 5.02
Cc1nc(NC(=N)N)nc2cc(OCC3CCCCC3)ccc12 [TDI-014169]	4.9 and 4.46 and 4.44 and 4.24 and 5.22
CCOc1cc2c(C)nc(NC(=N)N)nc2cc1OCc1ccccc1 [TDI-013758]	4.26 and 4.22 and 4.44 and 4.2 and 3.5 and 3.62
Cc1nc(NC(=N)N)nc2cc(OCC(F)(F)F)ccc12 [TDI-014168]	4.14 and 3.8 and 3.84 and 3.86 and 3.64 and 3.76 and 4.28 and 4.24 and 4.5 and 4.4
COc1ccc2nc(N)nc(C)c2c1 [TDI-012610]	5.06 and 5.3 and 4.76 and 5.08 and 6.44 and 5.56 and 5.1 and 5.2 and 4.94
CNc1nc(NC(=N)N)nc2cc(OCc3ccc(OC)cc3)ccc12 [TDI-014190]	4.6 and 4.72 and 4.4 and 3.78 and 4.5 and 4.58
COc1ccc2c(C)nc(NC(=N)N)nc2c1 [TDI-012631, reference compound]	3.78 and 4.78 and 4.32 and 4.98 and 4.84 and 4.54 and 4.6 and 4.4 and 4.7
Cc1nc(NC(=N)N)nc2cc(OCC3CCCCO3)ccc12 (stereo not shown) [TDI-014192]	5.26 and 3.82 and 4.36 and 3.42 and 3.64 and 3.72 and 4.24 and 3.12 and 4.64 and 5.56 and 5.06
COc1ccc(COc2ccc3c(C)nc(NC(=N)N)nc3c2)cc1 [TDI-013000]	5.2 and 5.78 and 5.28 and 5.38 and 5.92 and 5.46 and 5.14 and 5.02 and 5.66 and 4.68 and 5.36
CNc1nc(NC(=N)N)nc2cc(OCC3CCOCC3)ccc12 [TDI-014188]	4.46 and 4.78 and 4.84 and 5 and 4.82 and 4.54
Cc1nc(NC(=N)N)nc2cc(OCc3ccc(S(C)(=O)=O)cc3)ccc12 [TDI-014182]	5 and 4.06 and 3.94 and 3.34 and 3.84 and 4.28 and 5.28 and 4.58
CCOc1ccc2c(C)nc(NC(=N)N)nc2c1 [TDI-014177]	5.16 and 3.86 and 4.62 and 4.14 and 4.42 and 4.36
COc1ccc(COc2ccc3c(C)nc(NC(=N)N)nc3c2)cn1 [TDI-014173]	5.16 and 3.8 and 4.04 and 4.5 and 3.98 and 3.6 and 3.66 and 3.64 and 3.58 and 3.86 and 4.36 and 4.42 and 4.66 and 4.72 and 5.76
Cc1nc(NC(=N)N)nc2cc(OC3CCCc4ccccc43)ccc12 (stereo not shown) [TDI-014183]	4.52 and 4.48 and 4.4 and 4.86
Cc1nc(NC(=N)N)nc2cc(OC(F)F)ccc12 [TDI-012615]	4.84 and 4.22 and 3.7 and 4.44 and 5.12 and 5.02
Cc1nc(NC(=N)N)nc2cc(OCC3CCOC3)ccc12 (stereo not shown) [TDI-014174]	3.98 and 4.04 and 4 and 4.42 and 4.02 and 3.94 and 4.6 and 4.36 and 4.32 and 4.28 and 3.46
Cc1nc(NC(=N)N)nc2cc(OCC3CCCOC3)ccc12 (stereo not shown) [TDI-014167]	4.74 and 4.44 and 4.2 and 4.64 and 4.3 and 5
COc1ccc(COc2ccc3c(C)nc(NC(=N)N)nc3c2)cc1OC [TDI-014180]	4.76 and 5.28 and 6.02 and 5.54 and 4.14 and 4.58

Same assay, conditions: Supplemental Figure 1 Panel D; compounds of Fig 4; individual replicate values

SMILES	Weight per female
Cc1nc(NC(=N)N)nc2cc(OCc3ccc(OC(F)F)cc3)ccc12 [TDI-014170]	4.86 and 5.18 and 4.4 and 4.8 and 3.5 and 4.26 and 4.44 and 4.32
CNc1nc(NC(=N)N)nc2cc(OCc3ccccc3)c(OC)cc12 [TDI-014184]	4.82 and 4.92 and 5.5 and 5.18 and 5.64 and 3.48 and 3.64 and 4.54 and 3.74 and 4.46
Cc1nc(NC(=N)N)nc2cc(N3CCc4ccccc4C3)ccc12 [TDI-014186]	5.32 and 4.54 and 5.2 and 5.02 and 4.92 and 5.66 and 5.6 and 4.78 and 4.46 and 4.38 and 4.58 and 3.36 and 3.74 and 4.08 and 3.86 and 4.3 and 4.76 and 5.44
COc1ccc2c(C)nc(NC(=N)N)nc2c1 [TDI-012631, reference compound]	4.88 and 5.92 and 4.76 and 4.86 and 4.78 and 4.22 and 5.88 and 5.36 and 4.48 and 4.2 and 5.32 and 5 and 5.16
CNc1nc(NC(=N)N)nc2cc(OCC3CCOCC3)ccc12 [TDI-014188]	4.3 and 5.68 and 4.6 and 4.1 and 5.96 and 5.26 and 5.16 and 5.56 and 5.28 and 3.42 and 3.88 and 5.4 and 5.08 and 4.38 and 4.22 and 4.44 and 4.5 and 4.78
